Measurements published in PubChem BioAssay AID1259415 (National Center for Advancing Translational Sciences (NCATS), 2018).
“And” between values parts separate entries of the source, which are not always exact repeats. Equal entries are not always repeated. The campaign covered roughly 410,000 compounds. About 18,000 (4.4%) were called active. Inconclusive means that the source gave no clear call. Such entries were picked first, then a sample of the others. Cut-off read from the data, not from the text of the source: active = activity change below about -60%; inconclusive = no clear call, values can overlap the other calls; inactive = above about -39%.
% is set by controls: 0 for no effect and ±100 for the full control effect.

Experiment: qHTS Assay for inhibitors of the human cytomegalovirus (HCMV)
Conditions: HFF cells, HCMV-luciferase reporter, 72 h; at 57.5 µM; stronger effect = lower value
Outline: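 Compounds were evaluated in HFFs infected with an HCMV luciferase reporter virus (MOI 1 PFU/cell). Luciferase in lysates collected 72 h post infection served as the replication measure.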
In the case of `Cc1ccc(CNC(=O)CCCn2nc(C)c3c(C)n(-c4ccccc4)nc3c2=O)cc1`, the activity change, negative = inhibition is reported as inconclusive: -47%. With `O=S(=O)(NCC(c1cccnc1)N1CCOCC1)c1cccs1` (centres undefined) the activity change, negative = inhibition was inconclusive: -57.1%. In the case of `C[n+]1ccccc1/C=N/O`, the activity change, negative = inhibition is reported as inactive: -23.7% and inactive: -6.66%. In the case of `COc1ccc(-c2ccoc2)cc1[C@H]1[C@H]2C=CC[C@@H](C)[C@@H]2C(=O)N1Cc1ccccc1`, the activity change, negative = inhibition is reported as inconclusive: -44.3%. In the case of `CN1c2ccccc2C(=O)NC1c1ccc(Cl)cc1` (centres undefined), the activity change, negative = inhibition is reported as inconclusive: -40.9%. With `COc1ccc(CC(N)c2csc(NC(=O)Nc3ccc(C(C)C)cc3)n2)cc1` (centres undefined) the activity change, negative = inhibition was inconclusive: -51.7%. With `CN(C)c1ccc(C(C(=O)NC2CCCC2)N(C(=O)c2csnn2)C2CC2)cc1` (centres undefined) the activity change, negative = inhibition was inconclusive: -58.4%. With `Cc1cc(NC(=O)c2ccc([N+](=O)[O-])cc2Cl)no1` the activity change, negative = inhibition was inactive: 44.8%. For `CCOC(=O)C(CC(C)C)CP(=O)(O)CNC(=O)OCc1ccccc1` (centres undefined), the activity change, negative = inhibition was inconclusive: -49.3%. For `CCC(C)(C)C1CCC2(CC1)NC(=O)N(CC(=O)N1CCN(c3ccccc3OC)CC1)C2=O` (centres undefined), the activity change, negative = inhibition was inactive: -23.2%. With `Cc1cccc(OCC(=O)N/N=C\c2cccn2C)c1C` the activity change, negative = inhibition was inconclusive: -51%. For `C=CCn1c(SCC(=O)Nc2ccc(Br)cc2)nc(O)cc1=O`, the activity change, negative = inhibition was active: -100%. With `COc1ccc(CC(=O)N(Cc2ccccc2)c2ccc(C)cc2)cc1OC` the activity change, negative = inhibition was inconclusive: -41.9%. In the case of `COc1ccc(-c2cc3ccccc3oc2=O)cc1NC(=O)c1ccc(Br)o1`, the activity change, negative = inhibition is reported as inactive: -26.5%. In the case of `CCc1ccc(NC(=O)C2=CC(c3ccc(OC)c(OC)c3)=NS(=O)(=O)N2C)cc1`, the activity change, negative = inhibition is reported as inconclusive: -46.9%. For `COc1cccc(-c2nnc(SCC(=O)N3CCCc4ccccc43)o2)c1`, the activity change, negative = inhibition was inconclusive: -44.2%. With `CCOc1cc(N)c(Cl)cc1C(=O)NCC1CN(Cc2ccc(F)cc2)CCO1` (centres undefined) the activity change, negative = inhibition was inconclusive: -46% and active: -65.8%. For `COCCN1CN=C(Nc2nc3ccccc3o2)NC1`, the activity change, negative = inhibition was inactive: 29.5%. For `CCS(=O)(=O)NCC(c1cccnc1)N1CCN(c2ccc(OC)cc2)CC1` (centres undefined), the activity change, negative = inhibition was inconclusive: -50.8%. With `O=C(CCCN1C(=O)/C(=C/c2cccs2)SC1=S)NNC(=O)c1ccncc1` the activity change, negative = inhibition was inconclusive: -56.9%. For `O=C1C(Cl)=C(Nc2ccc3cn[nH]c3c2)C(=O)c2ccccc21`, the activity change, negative = inhibition was active: -99.9%. With `COC(=O)c1ccc(NC(=O)CC2Nc3cc(C)c(C)cc3NC2=O)cc1` (centres undefined) the activity change, negative = inhibition was active: -98.6%. In the case of `Cc1cccc(Nc2ccccc2C(=O)O)c1C`, the activity change, negative = inhibition is reported as active: -63%. With `CCOC(=O)C1=CCN(S(=O)(=O)c2ccc(F)cc2)C1c1ccc(Cl)c(Cl)c1` (centres undefined) the activity change, negative = inhibition was inconclusive: -59.1%. With `O=c1[nH]c2cccnc2n1-c1cccc([N+](=O)[O-])c1` the activity change, negative = inhibition was active: -84.5%. For `CSc1nc(N(C)C)nc(N2CC(=O)N(CCNS(=O)(=O)c3ccc(C)cc3)C2=N)n1`, the activity change, negative = inhibition was inconclusive: -42%. For `O=C(CN(Cc1ccccc1Cl)C(=O)c1csnn1)NCCc1ccccc1`, the activity change, negative = inhibition was inactive: -13.6%. In the case of `Cc1cc(N=NC(=O)c2ccccc2O)c2ccccc2c1O`, the activity change, negative = inhibition is reported as active: -72.7%. In the case of `CCC(C)n1ncn(-c2ccc(N3CCN(c4ccc(OCC5COC(Cn6cncn6)(c6ccc(Cl)cc6Cl)O5)cc4)CC3)cc2)c1=O` (centres undefined), the activity change, negative = inhibition is reported as active: -65.6%. With `CCC(C)[C@H](NC(=O)N1CCC(C)CC1)C(=O)O` (some centres undefined) the activity change, negative = inhibition was inconclusive: 0%. In the case of `CC(C)c1ccc(N2C(=O)NC(=O)/C(=C\c3cnc(-c4ccccc4)nc3)C2=O)cc1`, the activity change, negative = inhibition is reported as active: -87.6%. In the case of `O=C(Nc1ccccc1Cl)c1ccccc1Cl`, the activity change, negative = inhibition is reported as inconclusive: -51.6%. For `CCOC(=O)C1(CCCc2ccccc2)CCN(C(=O)c2cc(C)nn2CC)CC1`, the activity change, negative = inhibition was inconclusive: -52.1%. For `Cn1c(=O)n(C)c2cc(C(=O)Nc3ccc4c(c3)OCO4)ccc21`, the activity change, negative = inhibition was active: -96.3%. In the case of `Cc1cc(C(=O)N/N=C/c2c(C)n(C)c3ccccc23)n[nH]1`, the activity change, negative = inhibition is reported as inconclusive: -47.2%. In the case of `Cc1oc(-c2ccc(Cl)cc2)nc1CS(=O)CC(=O)N1CCN(c2cccc(C(F)(F)F)c2)CC1` (centres undefined), the activity change, negative = inhibition is reported as inconclusive: -59%. For `CS(=O)(=O)c1ccc(C(=O)Nc2cc(S(C)(=O)=O)ccc2Cl)cc1`, the activity change, negative = inhibition was inconclusive: -48.8%. With `COc1cc(NS(=O)(=O)c2ccc(NC(C)=O)cc2)cc(OC)c1` the activity change, negative = inhibition was inconclusive: -44.5%. For `Cc1cccc(C)c1NC(=O)NCCc1c[nH]c2ccccc12`, the activity change, negative = inhibition was inactive: 6.29%. In the case of `Fc1ccc(NC(=S)Nc2cccc3ccccc23)cc1F`, the activity change, negative = inhibition is reported as active: -71.3%. With `Cn1cc(CNCc2cnc3ccccn23)c(-c2ccc(Oc3ccccc3)cc2)n1` the activity change, negative = inhibition was inconclusive: -51.5%. For `COCCCn1c(=N)c(C(=O)NCc2ccco2)cc2c(=O)n3ccccc3nc21`, the activity change, negative = inhibition was inactive: -13%. For `Cc1ccc2c(c1)-c1onc(C(=O)N3CCN(c4ccc(Cl)cc4)CC3)c1CO2`, the activity change, negative = inhibition was inactive: 7.13%. With `CCOc1ccc(CCNC(=O)COC(=O)c2cc(OC)c(OC)cc2[N+](=O)[O-])cc1OCC` the activity change, negative = inhibition was inactive: -5.26%. In the case of `O=C(COc1ccccc1)NNC(=O)c1cc2ccccc2oc1=O`, the activity change, negative = inhibition is reported as inconclusive: -41.6%. With `COc1ccc(C2NC(=O)C(C#N)=C(S)N2c2cccc(C)c2)cc1OC` (centres undefined) the activity change, negative = inhibition was inconclusive: -52.2%. With `CCc1c(CN2CCN(c3cccc(C)c3C)CC2)csc1C` the activity change, negative = inhibition was inconclusive: -53.9%. In the case of `Fc1ccc(CNc2ncnc3onc(-c4ccc(F)cc4)c23)cc1`, the activity change, negative = inhibition is reported as inconclusive: -44.4%. For `O=C(C1COc2ccccc2O1)N1CCN(c2nc3ccc(F)cc3s2)CC1` (centres undefined), the activity change, negative = inhibition was inconclusive: -53%. For `CC(=O)Nc1ccc(S(=O)(=O)N(C)Cc2cnn(C)c2)cc1`, the activity change, negative = inhibition was inconclusive: -42.9%. With `O=C(O)CCCN1C(=O)C(=O)/C(=C(/O)c2ccc(Cl)cc2)C1c1ccccc1` (centres undefined) the activity change, negative = inhibition was inconclusive: -42.9%. In the case of `CCN1CCCC1CN(Cc1cc2ccc(C)cc2[nH]c1=O)C(=S)Nc1ccc(OC)cc1` (centres undefined), the activity change, negative = inhibition is reported as inconclusive: -56%. In the case of `O=C(C1=C[C@H](c2ccc(Br)cc2)C[C@H](OCc2ccc(CO)cc2)O1)N1CCN(Cc2ccc3c(c2)OCO3)CC1`, the activity change, negative = inhibition is reported as inconclusive: -42.5%. For `CC(C)c1ccc(C(=O)NCCCN2CCN(CCCNC(=O)c3ccc(C(C)C)cc3)CC2)cc1`, the activity change, negative = inhibition was active: -80.2%.
